US20240108662A1, “ENGINEERED CELLS FUNCTIONALIZED WITH IMMUNE CHECKPOINT MOLECULES AND USES THEREOF” (The University of North Carolina at Chapel Hill, priority 2020, published 2024)

B1: Q9D023 (protein, UniProt Q9D023 1-127, looked up)
chain: MAAAGARGLRATYHRLMDKVELLLPKKLRPLYNHPAGPRTVFFWAPIMKWGLVCAGLADMARPAEKLSTAQSTVLMATGFIWSRYSLVIIPKNWSLFAVNFFVGSAGASQLFRIWRYNQELKSKGIQ
modifications: full-length
B2: Q91ZW3 (protein, UniProt Q91ZW3 1-1051, looked up)
chain: MSSAVEPPPPPPPESAPSKPSAAGAGGSSSGNKGGPEGGAAPAAPCAAGSGPADTEMEEVFDHGSPGKQKEIQEPDPTYEEKMQTDRANRFEYLLKQTELFAHFIQPAAQKTPTSPLKMKPGRPRVKKDEKQNLLSVGDYRHRRTEQEEDEELLTESSKATNVCTRFEDSPSYVKWGKLRDYQVRGLNWLISLYENGINGILADEMGLGKTLQTISLLGYMKHYRNIPGPHMVLVPKSTLHNWMSEFKKWVPTLRSVCLIGDKEQRAAFVRDVLLPGEWDVCVTSYEMLIKEKSVFKKFNWRYLVIDEAHRIKNEKSKLSEIVREFKTTNRLLLTGTPLQNNLHELWSLLNFLLPDVFNSADDFDSWFDTNNCLGDQKLVERLHMVLRPFLLRRIKADVEKSLPPKKEVKIYVGLSKMQREWYTRILMKDIDILNSAGKMDKMRLLNILMQLRKCCNHPYLFDGAEPGPPYTTDMHLVTNSGKMVVLDKLLPKLKEQGSRVLIFSQMTRVLDILEDYCMWRNYEYCRLDGQTPHDERQDSINAYNEPNSTKFVFMLSTRAGGLGINLATADVVILYDSDWNPQVDLQAMDRAHRIGQTKTVRVFRFITDNTVEERIVERAEMKLRLDSIVIQQGRLVDQNLNKIGKDEMLQMIRHGATHVFASKESEITDEDIDGILERGAKKTAEMNEKLSKMGESSLRNFTMDTESSVYNFEGEDYREKQKIAFTEWIEPPKRERKANYAVDAYFREALRVSEPKAPKAPRPPKQPNVQDFQFFPPRLFELLEKEILYYRKTIGYKVPRSPDLPNAAQAQKEEQLKIDEAEPLNDEELEEKEKLLTQGFTNWNKRDFNQFIKANEKWGRDDIENIAREVEGKTPEEVIEYSAVFWERCNELQDIEKIMAQIERGEARIQRRISIKKALDTKIGRYKAPFHQLRISYGTNKGKNYTEEEDRFLICMLHKLGFDKENVYDELRQCIRNSPQFRFDWFLKSRTAMELQRRCNTLITLIERENMELEEKEKAEKKKRGPKPSTQKRKMDGAPDGRGRKKKLKL
modifications: full-length
B3: Q91YH5 (protein, UniProt Q91YH5 1-541, looked up)
chain: MLSPQRTAAVASRGAGDAMENGKPGPVQVVLVHKEQHSFELEERALASVLLQDHIRDLDVVVVSVAGAFRKGKSFILDFMLRYLYSQKEGGHSDWLGDPEEPLTGFSWRGGSDPETTGIQIWSEVFTVKKPCGKKVAVVLMDTQGAFDSQSTVKDCATIFALSTMTSSVQIYNLSQNIQEDDLQQLQLFTEYGRLAMDEIFQKPFQTLMFLIRDWSFPYEYNYGLQGGMAFLDKRLHVKEHQHEEIQNVRNHIHSCFSDVTCFLLPHPGLQVATSPNFDGKLKDIASEFKEQLQALIPYVLNPSKLMEKEINGSKVTCRGLLEYFKAYIKIYQGEDLPHPKSMLQATAEANNLAAAASAKDIYYNNMEEICGGEKPYLSPDILEEKHLEFKQLALDHFKKIKKMGGKDFSFRYQQELEEEIKELYENFCKHNGSKNVFSTFRTPAVLFTGIAALYIASGFTGFIGLEVVAQLFNCMVGLLLIALLTWGYIRYSGQYRELGGAIDSGAAYVLEQASSHIGNSTQAAVRDAVVGRPPADKKSQ
modifications: full-length
B4: Q5SYD0 (protein, UniProt Q5SYD0 1-1006, looked up)
chain: MAEQESLEFGKADFVLMDTVSMPEFMANLRLRFEKGRIYTFIGEVVVSVNPYKVLNIYGRDTVEQYKGRELYERPPHLFAIADAAYKAMKRRSKDTCIMISGESGAGKTEASKYIMQYIAAITNPSQRAEIERVKNMLLKSNCVLEAFGNAKTNRNDNSSRFGKYMDINFDFKGDPIGGHINNYLLEKSRVIVQQPGERSFHSFYQLLQGGSEQMLHSLHLQKSLSSYNYIRVGAQLKSSINDAAEFKVVADAMKVIGFKPEEIQTVYKILAVILHLGNLKFIVDGDTPLIENGKVVSVIAELLSTKADMVEKALLYRTVATGRDIIDKQHTEQEASYGRDAFAKAIYERLFCWIVTRINDIIEVKNYDTTIHGKNTVIGVLDIYGFEIFDNNSFEQFCINYCNEKLQQLFIQLVLKQEQEEYQREGIPWKHIDYFNNQIIVDLVEQQHKGIIAILDDACMNVGKVTDGMFLEALNSKLGKHGHFSSRKTCASDKILEFDRDFRIRHYAGDVVYSAIGFIDKNKDTLFQDFKRLMYNSSNPVLKNMWPEGKLSITEVTKRPLTAATLFKNSMIALVDNLASKEPYYVRCIKPNDKKSPQIFDDERCRHQVEYLGLLENVRVRRAGFAFRQTYEKFLHRYKMISEFTWPNHDLPSDKEAVKKLIERCGFQDDVAYGKSKIFIRTPRTLFTLEELRAQMLVRVVLFLQKVWRGTLARMRYKRTKAALTIIRYYRRYKVKSYIHEVARRFHGVKNMRDYGKHVKWPTPPKVLRRFEEALQSIFNRWRASQLIKTIPASDLPQVRAKVAAMEMLKGQRADLGLQRAWEGNYLASKPDTPQTSGTFVPVANELKRKDKYMNVLFSCHVRKVNRFSKVEDRAIFVTDRHLYKMDPTKQYKVMKTIPLYNLTGLSVSNGKDQLVVFHTKDNKDLIVCLFSKQPTHESRIGELVGVLVNHFKSEKRHLQVNVTNPVQCSLHGKKCTVSVETRLNQPQPDFTKNRSGFILSVPGN
modifications: full-length
B5: Q9CR64 (protein, UniProt Q9CR64 1-72, looked up)
chain: MSAIFNFQSLLTVILLLICTCAYIRSLAPSILDRNKTGLLGIFWKCARIGERKSPYVAICCIVMAFSILFIQ
modifications: full-length
B6: O88697 (protein, UniProt O88697 1-305, looked up)
chain: MGHALCVCSRGTVIIDNKRYLFVQKLGEGGFSYVDLVEGLHDGHFYALKRILCHEQQDQEEAQREAEMHRLFQHPNILRLMAYSLKERGAKHEAWLLLPFFKKGTLWNEIERLKDQGSFLTEDQILPLLLGISRGLEAIHAKGYAHRDLKPTNILLGDEGQPVLMDLGSMNQACIQVEGSRQALALQDWAAQRCTISYRAPELFSVQSHCVIDERTDVWSLGCVLYAMMFGEGPYDMVFQKGDSVALAVQNELSIPQSPRHSSALRQLLSSMMTVDPQQRPHIPVLLSQLEALQPPAPGQHTTQI
modifications: full-length
B7: P08121 (protein, UniProt P08121 1-1464, looked up)
chain: MMSFVQSGTWFLLTLLHPTLILAQQSNVDELGCSHLGQSYESRDVWKPEPCQICVCDSGSVLCDDIICDEEPLDCPNPEIPFGECCAICPQPSTPAPVLPDGHGPQGPKGDPGPPGIPGRNGDPGLPGQPGLPGPPGSPGICESCPTGGQNYSPQFDSYDVKSGVGGMGGYPGPAGPPGPPGPPGSSGHPGSPGSPGYQGPPGEPGQAGPAGPPGPPGALGPAGPAGKDGESGRPGRPGERGLPGPPGIKGPAGMPGFPGMKGHRGFDGRNGEKGETGAPGLKGENGLPGDNGAPGPMGPRGAPGERGRPGLPGAAGARGNDGARGSDGQPGPPGPPGTAGFPGSPGAKGEVGPAGSPGSNGSPGQRGEPGPQGHAGAQGPPGPPGNNGSPGGKGEMGPAGIPGAPGLIGARGPPGPAGTNGIPGTRGPSGEPGKNGAKGEPGARGERGEAGSPGIPGPKGEDGKDGSPGEPGANGLPGAAGERGPSGFRGPAGPNGIPGEKGPPGERGGPGPAGPRGVAGEPGRDGTPGGPGIRGMPGSPGGPGNDGKPGPPGSQGESGRPGPPGPSGPRGQPGVMGFPGPKGNDGAPGKNGERGGPGGPGLPGPAGKNGETGPQGPPGPTGPAGDKGDSGPPGPQGLQGIPGTGGPPGENGKPGEPGPKGEVGAPGAPGGKGDSGAPGERGPPGTAGIPGARGGAGPPGPEGGKGPAGPPGPPGASGSPGLQGMPGERGGPGSPGPKGEKGEPGGAGADGVPGKDGPRGPAGPIGPPGPAGQPGDKGEGGSPGLPGIAGPRGGPGERGEHGPPGPAGFPGAPGQNGEPGAKGERGAPGEKGEGGPPGPAGPTGSSGPAGPPGPQGVKGERGSPGGPGTAGFPGGRGLPGPPGNNGNPGPPGPSGAPGKDGPPGPAGNSGSPGNPGIAGPKGDAGQPGEKGPPGAQGPPGSPGPLGIAGLTGARGLAGPPGMPGPRGSPGPQGIKGESGKPGASGHNGERGPPGPQGLPGQPGTAGEPGRDGNPGSDGQPGRDGSPGGKGDRGENGSPGAPGAPGHPGPPGPVGPSGKSGDRGETGPAGPSGAPGPAGARGAPGPQGPRGDKGETGERGSNGIKGHRGFPGNPGPPGSPGAAGHQGAIGSPGPAGPRGPVGPHGPPGKDGTSGHPGPIGPPGPRGNRGERGSEGSPGHPGQPGPPGPPGAPGPCCGGGAAAIAGVGGEKSGGFSPYYGDDPMDFKINTEEIMSSLKSVNGQIESLISPDGSRKNPARNCRDLKFCHPELKSGEYWVDPNQGCKMDAIKVFCNMETGETCINASPMTVPRKHWWTDSGAEKKHVWFGESMNGGFQFSYGPPDLPEDVVDVQLAFLRLLSSRASQNITYHCKNSIAYMDQASGNVKKSLKLMGSNEGEFKAEGNSKFTYTVLEDGCTKHTGEWSKTVFEYQTRKAMRLPIIDIAPYDIGGPDQEFGVDIGPVCFL
modifications: full-length
B8: Q9QZJ6 (protein, UniProt Q9QZJ6 1-164, looked up)
chain: MLFLGQKALLLVLAISIPSDWLPLGVSGQRGDDVPETFTDDPNLVNDPSTDDTALADITPSTDDLAGDKNATAECRDEKFACTRLYSVHRPVRQCVHQSCFTSLRRMYIINNEICSRLVCKEHEAMKDELCRQMAGLPPRRLRRSNYFRLPPCENMNLQRPDGL
modifications: full-length

Test: Proteomic analysis of native murine pancreata and decelled pancreatic ECM (Table 1)
Set-up: species or system mouse
Settings: abundance of the listed protein in decelled pancreatic ECM
For B1, the “Pancreatic ECM: Mean of log2(intensities)” value was 27.53 a.u. For B2, the “Pancreatic ECM: Mean of log2(intensities)” value was 25.96 a.u. For B3, the “Pancreatic ECM: Mean of log2(intensities)” value was 27.53 a.u. For B4, the “Pancreatic ECM: Mean of log2(intensities)” value was 27.11 a.u. For B5, the “Pancreatic ECM: Mean of log2(intensities)” value was 26.22 a.u. For B6, the “Pancreatic ECM: Mean of log2(intensities)” value was 26.83 a.u. For B7, the “Pancreatic ECM: Mean of log2(intensities)” value was 29.90 a.u. In the case of B8, the “Pancreatic ECM: Mean of log2(intensities)” value is reported as 29.69 a.u.

Same assay, conditions: abundance of the listed protein in native murine pancreas tissue
In the case of B1, the “Native pancreas tissue: Mean of log2(intensities)” value is reported as 22.02 a.u. For B2, the “Native pancreas tissue: Mean of log2(intensities)” value was 20.98 a.u. In the case of B3, the “Native pancreas tissue: Mean of log2(intensities)” value is reported as 21.23 a.u. With B4 the “Native pancreas tissue: Mean of log2(intensities)” value was 22.08 a.u. With B5 the “Native pancreas tissue: Mean of log2(intensities)” value was 21.06 a.u. In the case of B6, the “Native pancreas tissue: Mean of log2(intensities)” value is reported as 21.01 a.u. With B7 the “Native pancreas tissue: Mean of log2(intensities)” value was 22.28 a.u. With B8 the “Native pancreas tissue: Mean of log2(intensities)” value was 22.53 a.u.
